Results are given in words; binding and its absence hold for the method and conditions named. Binding seen in cells or lysates may run through a third protein. Some entries that bind do so weakly or less than the wild type. Where a sequence is shown, tags or fusion partners need not be part of it.
Assays:
Experiment in all cases: pull-down
[1] = target: T1, GST-CGA1 (Arabidopsis thaliana) (UniProt Q9SZI6)
T1 sequence: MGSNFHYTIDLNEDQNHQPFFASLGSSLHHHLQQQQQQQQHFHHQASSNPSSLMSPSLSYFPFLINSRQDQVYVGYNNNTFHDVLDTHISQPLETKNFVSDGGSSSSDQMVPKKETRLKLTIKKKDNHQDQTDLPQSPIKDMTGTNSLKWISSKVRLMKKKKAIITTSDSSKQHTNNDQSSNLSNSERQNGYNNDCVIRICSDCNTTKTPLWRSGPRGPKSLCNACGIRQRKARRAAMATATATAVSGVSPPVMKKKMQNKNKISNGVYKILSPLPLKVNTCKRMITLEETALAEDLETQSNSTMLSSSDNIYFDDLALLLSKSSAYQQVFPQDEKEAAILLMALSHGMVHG

[2] = target: T2, GST-GNC (Arabidopsis thaliana) (UniProt Q5HZ36)
T2 sequence: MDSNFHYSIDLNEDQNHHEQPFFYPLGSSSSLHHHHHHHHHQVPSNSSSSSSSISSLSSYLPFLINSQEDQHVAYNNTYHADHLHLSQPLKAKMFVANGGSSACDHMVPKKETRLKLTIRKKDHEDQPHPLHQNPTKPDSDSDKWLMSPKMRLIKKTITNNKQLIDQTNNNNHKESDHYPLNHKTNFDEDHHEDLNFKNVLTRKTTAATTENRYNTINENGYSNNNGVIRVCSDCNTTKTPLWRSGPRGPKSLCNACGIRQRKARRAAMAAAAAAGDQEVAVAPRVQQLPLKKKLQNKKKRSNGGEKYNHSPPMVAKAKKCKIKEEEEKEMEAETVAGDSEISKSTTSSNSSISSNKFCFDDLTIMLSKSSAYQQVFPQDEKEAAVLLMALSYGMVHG

[3] = target: T3, GST-GLK1 (Arabidopsis thaliana) (UniProt Q9SIV3)
T3 sequence: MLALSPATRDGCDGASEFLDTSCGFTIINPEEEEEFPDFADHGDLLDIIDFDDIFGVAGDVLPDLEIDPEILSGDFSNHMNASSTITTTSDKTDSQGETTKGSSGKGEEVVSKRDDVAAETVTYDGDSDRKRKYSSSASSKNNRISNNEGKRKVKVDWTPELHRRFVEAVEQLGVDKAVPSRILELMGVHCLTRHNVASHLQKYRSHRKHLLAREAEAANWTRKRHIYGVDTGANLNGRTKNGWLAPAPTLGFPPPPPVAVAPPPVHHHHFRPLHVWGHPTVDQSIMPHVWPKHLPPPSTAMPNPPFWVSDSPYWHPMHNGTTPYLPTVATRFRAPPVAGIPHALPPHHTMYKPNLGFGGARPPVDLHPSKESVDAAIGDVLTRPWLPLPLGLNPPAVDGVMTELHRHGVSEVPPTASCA

[4] = target: T4, GST-GLK2 (Arabidopsis thaliana) (UniProt Q9FFH0)
T4 sequence: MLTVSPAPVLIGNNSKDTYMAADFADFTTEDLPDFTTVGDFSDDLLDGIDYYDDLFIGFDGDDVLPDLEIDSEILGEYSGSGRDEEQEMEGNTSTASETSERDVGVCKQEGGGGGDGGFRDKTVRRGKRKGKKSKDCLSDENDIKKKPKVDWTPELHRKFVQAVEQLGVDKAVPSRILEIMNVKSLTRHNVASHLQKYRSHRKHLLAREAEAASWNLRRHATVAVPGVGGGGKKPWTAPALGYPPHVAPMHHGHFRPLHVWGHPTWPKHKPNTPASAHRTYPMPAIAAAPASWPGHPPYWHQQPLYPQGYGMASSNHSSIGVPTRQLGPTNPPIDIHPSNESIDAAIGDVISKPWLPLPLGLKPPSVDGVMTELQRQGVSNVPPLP

Measured: binding

B1: nDET1 (26-87 aa) (domain or fragment, UniProt P48732 26-87)
chain: NRARHFYENLVPSYTLYDVESPDHCFRKFTEDGLFLISFSRNHQELIVYRPSWLTYSTTDDS
binds: all assays above

— paper doi:10.1101/2022.09.30.510343
